This experiment in a line: IkB Signaling. Conditions: ABC-DLBCL IkBa-CBG/CBR dual luciferase ratio (green luciferase fused to IkBa over red control in OCI-Ly3 lymphoma cells), 4 h. In short, it runs like this: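 Curves were fitted separately to fusion (green), unfused (red) and ratio luminescence, then classed by r2, magnitude and activity. Cells: OCI-Ly3, 4 h compound plus doxycycline at 37C; 10 uM MG-132 defined full response.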
[1] abbreviates: measured here: control luc red channel.
Setting [2] is: measured here: IkB-luc green channel.

59 compounds from PubChem BioAssay AID445 (National Center for Advancing Translational Sciences (NCATS), 2006) can be followed below.

Structures are written as SMILES. “And” between values parts separate entries of the source, which are not always exact repeats. Equal values may be shown once. This is one part of the list. Further columns of the screen follow, without active or inactive calls. Most of these compounds were active or inconclusive in the main read-out, so they are no random draw. The note in brackets gives the kind of curve behind each potency; many fits are weak.

The AC50 is the concentration giving half of the maximal activity seen.

With `Cc1nccc2c1[nH]c1ccccc12`, the half-maximal activity concentration (AC50) under setting [1] was 31.6 µM [falling, partial curve].
`COc1cccc(-c2nn3c(=O)cc(CN4CCN(C(=O)COc5ccccc5C)CC4)nc3s2)c1`: the AC50 under setting [1] is 31.6 µM [falling, single point].
As to `CC(C)(Cc1c[nH]c2ccc(Cl)cc12)NCCOc1ccccc1OCC1CC1`, the AC50 under setting [1] was 31.6 µM [falling, partial curve].
`CCCCn1c(=O)c(C(=O)Nc2ccccc2S(N)(=O)=O)c(O)c2ccccc21`: the AC50 under setting [1] was 3.98 µM [falling, partial curve].
The same measure, in the same setting: under `CC[C@@]1(O)C(=O)OCc2c1cc1n(c2=O)Cc2cc3c(NC(=O)CN)cccc3nc2-1` stands 3.16 µM [falling, partial curve].
On to `Cc1c2ccncc2c(C)c2c1[nH]c1ccccc12`, for which the concentration at half-maximal activity (AC50) was 7.94 µM [falling, partial curve] under setting [2]; 12.6 µM [falling, partial curve] and 3.98 µM [falling, partial curve] under setting [1].
Consider `COc1ccc(C(c2c(O)c3ccccc3oc2=O)c2c(C)n(C)n(-c3ccccc3)c2=O)cc1` (centres undefined), for which, under setting [1], the AC50 is 10 µM [falling, partial curve].
In the case of `N#Cc1cc2c(nc1SCC(=O)Nc1cccc(C(F)(F)F)c1)C1CCN2CC1`, under setting [1], the half-maximal activity concentration (AC50) was 0.631 µM [rising, full curve, poor fit].
`CC(=O)c1cccc(NC(=O)c2cccn(Cc3cccc(C)c3)c2=O)c1`: the half-maximal activity concentration (AC50) under setting [1] was 39.8 µM [falling, single point].
On the same count and under the same terms, the figure for `Oc1c(Cl)cc(Cl)cc1CN1CCN(Cc2ccccc2)CC1` is 10 µM [falling, partial curve].
On the same count and under the same terms, under `COc1ccc(NC(=O)CN2C(=O)C(C)N=C(c3ccccc3)c3ccccc32)cc1OC` (centres undefined) stands 20 µM [falling, single point]; under `COc1ccc(C[C@H]2NC[C@H](O)[C@@H]2OC(C)=O)cc1`, 0.0631 µM [falling, full curve].
Same read-out and setting: under `COc1ccc(C(=O)c2c(C)n(CCN3CCOCC3)c3cc(I)ccc23)cc1` stands 39.8 µM [falling, partial curve].
`COC(=O)CN1CN(c2ccccc2)C2(CCN(Cc3ccc4ccccc4c3)CC2)C1=O`: the AC50 under setting [1] is 39.8 µM [falling, partial curve].
As for `Cc1ccc(S(=O)(=O)N[C@@H](CCCCN)C(=O)CCl)cc1`, the AC50 under setting [2] was 31.6 µM [rising, partial curve].
Consider `Nc1c(C(=O)Nc2ccc(F)c(Cl)c2)sc2nc3c(cc12)N1CCC3CC1`, for which the AC50 under setting [1] is 25.1 µM [falling, partial curve].
On the same count and under the same terms, the figure for `CC(C)(O)[C@H]1O[C@@H]2CC[C@]3(C)[C@@]4(C)c5[nH]c6ccccc6c5C[C@@H]4CC[C@]3(O)C2=CC1=O` is 31.6 µM [falling, partial curve]; for `CCCCC/C=C\C/C=C\C/C=C\C/C=C\CCCC(=O)Nc1ccc(O)cc1` it is 25.1 µM [falling, partial curve, poor fit].
For the compound `O=C(Nc1ccon1)c1cccn(Cc2cccc([N+](=O)[O-])c2)c1=O`, the half-maximal activity concentration (AC50) under setting [2] was 5.01 µM [rising, single point].
`O=C(Nc1ccc2c(c1)OCO2)c1cccn(Cc2ccccc2)c1=O`: under setting [1], the concentration at half-maximal activity (AC50) was 39.8 µM [falling, single point].
For `CCCCCn1c(=O)c(C(=O)Nc2ccncc2)c(O)c2ccccc21`, the AC50 under setting [1] was 0.631 µM [falling, full curve, poor fit].
The same measure, in the same setting: under `FC(F)(F)c1ccc2c(c1)ncn2C1CCN(Cc2nnnn2C2CCCCC2)CC1` stands 15.8 µM [falling, partial curve]; under `COC(=O)N1CCN(C(=O)Cc2ccc(Cl)c(Cl)c2)[C@H](CN2CCCC2)C1`, 7.94 µM [rising, full curve]; under `Cc1ccc(-c2nc(CN3C(=O)CN=C(c4ccccc4Cl)c4cc(Cl)ccc43)c(C)o2)cc1`, 39.8 µM [falling, single point].
For `Cc1cccc(Cn2cccc(C(=O)Nc3nnc(C)s3)c2=O)c1`, the concentration at half-maximal activity (AC50) under setting [1] was 2 µM [falling, full curve, poor fit].
On the same count and under the same terms, under `O=C1CC(c2ccc(C(F)(F)F)cc2)c2c(c3ccccc3oc2=O)O1` (centres undefined) stands 6.31 µM [falling, partial curve].
In the case of `ClC1=C(Cl)C2(Cl)C3C4C=CC(C4)C3C1(Cl)C2(Cl)Cl` (centres undefined), the half-maximal activity concentration (AC50) reads like this: under setting [2], 15.8 µM [rising, full curve]; under setting [1], 12.6 µM [rising, full curve].
Regarding `CCC(C)(C)n1nnnc1C(c1cccs1)N1CC=C(c2ccc(F)cc2)CC1` (centres undefined), the concentration at half-maximal activity (AC50) under setting [1] is 25.1 µM [falling, partial curve].
`COCCCNC(=O)c1c(NC(=O)c2ccco2)n(Cc2ccccc2)c2nc3ccccc3nc12`: the concentration at half-maximal activity (AC50) under setting [2] was 25.1 µM [rising, partial curve].
As to `COc1ccc2c(c1)[nH]c1c(C)nccc12`, the AC50 under setting [1] was 3.98 µM [falling, partial curve].
For `Oc1c(Cl)c(Cl)c(Cl)c(Cl)c1Cl`, under setting [1], the AC50 was 7.94 µM [falling, full curve].
The same measure, in the same setting: under `Cc1ccc2c(=O)n(-c3cccc(Cl)c3)c(=O)[nH]c2c1` stands 2.51 µM [rising, partial curve]; under `CCN(CC)C(=O)c1ccc(NC(=O)COc2ccc(-c3nn(C)c(=O)c4ccccc34)cc2)cc1`, 15.8 µM [falling, partial curve].
Regarding `O=C(C1CC(c2ccc(Cl)c(Cl)c2)=NO1)N1CCC2(CC1)OCCO2` (centres undefined), the half-maximal activity concentration (AC50) under setting [1] is 31.6 µM [falling, single point].
In the case of `COc1ccccc1-c1nn2c(=O)cc(CN3CCN(C(=O)COc4ccccc4Cl)CC3)nc2s1`, the concentration at half-maximal activity (AC50) under setting [1] was 20 µM [falling, single point].
In the case of `Cc1ccccc1-c1nc(CN2C(=O)CN=C(c3ccccc3)c3ccccc32)c(C)o1`, the AC50 under setting [1] was 15.8 µM [falling, partial curve].
As for `COc1ccc(C[C@@H]2C(=O)N[C@H](C)C(=O)N(C)[C@@H]3C(=O)N(C)[C@@H](Cc4ccc(O)c(c4)Oc4ccc(cc4)[C@H]3O)C(=O)N[C@@H](C)C(=O)N[C@H](C)C(=O)N2C)cc1`, the AC50 under setting [1] was 0.126 µM [falling, full curve].
As to `CC(C)[C@@]1(NC(=O)[C@H]2C[C@H]3c4cccc5[nH]cc(c45)C[C@@H]3N(C)C2)O[C@]2(O)[C@H]3CCCN3C(=O)[C@H](Cc3ccccc3)N2C1=O`, the half-maximal activity concentration (AC50) under setting [2] was 20 µM [falling, partial curve] and the AC50 under setting [1] was 15.8 µM [falling, partial curve].
Consider `O=c1c2ccccc2nc(/C=C/c2cccc3ccccc23)n1-c1ccc(Cl)cc1`, for which the AC50 under setting [1] is 12.6 µM [falling, partial curve].
On the same count and under the same terms, under `Cc1cc(C)cc(NC(=O)CN2C(=O)CN=C(c3ccccc3)c3cc(Cl)ccc32)c1` stands 15.8 µM [falling, partial curve]; under `CCC(=NCc1ccc2c(c1)OCO2)c1c(O)n(C)c(=O)n(C)c1=O`, 15.8 µM [falling, partial curve]; under `CCCN(CCC)[C@@H]1CCc2c(OC)cccc2[C@@H]1C`, 15.8 µM [rising, partial curve].
On the same count and under the same terms, under `Cn1nc(-c2ccc(OCC(=O)N3CCN(Cc4ccccc4)CC3)cc2)c2ccccc2c1=O` stands 10 µM [falling, partial curve].
Consider `CN(C)C(=S)SSC(=S)N(C)C`, for which the AC50 under setting [2] is 7.94 µM [rising, partial curve] and the AC50 under setting [1] was 39.8 µM [falling, single point].
In the case of `COc1ccc2nc(NC(=O)CCc3nc(C4=CCN(C)CC4)no3)sc2c1`, the AC50 under setting [1] was 12.6 µM [falling, partial curve].
Turning to `O=[N+]([O-])/C=C/c1ccccc1`, the concentration at half-maximal activity (AC50) by setting is: under setting [2], 5.01 µM [rising, partial curve, poor fit]; under setting [1], 15.8 µM [falling, full curve].
Turning to `COc1cccc(-n2c(/C=C\c3ccc(Cl)cc3)nc3ccccc3c2=O)c1`, the AC50 under setting [1] is 12.6 µM [falling, partial curve].
Turning to `CCCN(CCC)[C@@H]1CCc2cccc(O)c2C1`, under setting [2], the AC50 was 0.0501 µM [rising, full curve, poor fit].
On to `Cc1ccccc1-c1nn2c(=O)cc(CN3CCN(C(=O)COc4ccccc4Cl)CC3)nc2s1`, for which the AC50 under setting [1] was 25.1 µM [falling, single point].
Still for that read-out and setting: the figure for `Cc1ccc(-n2c(/C=C\c3ccc(F)c(F)c3)nc3ccccc3c2=O)c(C)c1` is 3.98 µM [falling, partial curve].
Turning to `C[C@H]1C[C@H](C)C(=O)[C@@H]([C@H](O)CC2CC(=O)NC(=O)C2)C1`, the half-maximal activity concentration (AC50) under setting [1] is 794 nM [falling, partial curve] and 251 nM [falling, full curve].
Consider `Cc1cc(S(=O)(=O)NCC(C)C)ccc1OCC(=O)N1CCN(Cc2ccccc2)CC1`, for which the concentration at half-maximal activity (AC50) under setting [1] is 12.6 µM [falling, partial curve].
Take `COc1cccc(/C=C/c2nc3ccccc3c(=O)n2-c2ccc(Cl)cc2)c1OC`: under setting [1], the AC50 was 15.8 µM [falling, partial curve].
On to `CN1Cc2ccccc2[C@@H]2c3cccc4[nH]cc(c34)C[C@H]21`, for which the AC50 under setting [1] is 31.6 µM [falling, partial curve].
Still for that read-out and setting: the figure for `COc1ccc(C)cc1NC(=O)c1cccn(Cc2cccc([N+](=O)[O-])c2)c1=O` is 1.58 µM [falling, full curve]; for `C[C@H]1CCCC(=O)CCC/C=C/c2cc(O)cc(O)c2C(=O)O1` it is 31.6 µM [falling, partial curve] and 20 µM [falling, partial curve]; for `Cc1ccc(-n2c(/C=C/c3cccs3)nc3ccccc3c2=O)cc1C` it is 31.6 µM [falling, partial curve].
Consider `CCCCCCN=C(CC)c1c(O)n(CCCC)c(=O)[nH]c1=O`, for which, under setting [1], the AC50 was 39.8 µM [falling, single point].
In the case of `CCOC(=O)c1c(C)n(Cc2ccccc2)c2ccc(OCC(O)CN3C(=O)CNC3=O)cc12` (centres undefined), the half-maximal activity concentration (AC50) under setting [1] was 25.1 µM [falling, single point].
